Some of the results follow. The data scatter; read single values as rough.
Experiments:
[1] = compound: ClCC(=O)N[C@@H]1CCCc2ccccc12; assay: log2 mean competition ratio of IA-DTB cysteine labelling (DMSO/compound) (log2 ratio); higher = stronger cysteine engagement by compound; conditions: treatment time: 4 h, cell line lysate: HEK293T
Description: (§1)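 IA-DTB competitive cysteine chemoproteomics in HEK293T RIPA lysate. Lysates were treated with compound 29 or 30 at 50 or 200 µM for 4 h, then IA-DTB (500 µM, 1 h), trypsin-digested, NeutrAvidin-enriched and analysed by diaPASEF. Competition ratio = intensity DMSO / intensity compound (n=4 treated, n=64 DMSO); binding: mean log2 CR ≥ 1 and p ≤ 0.05 plus QC filters. Target is the cysteine site.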

Chains of the proteins cited; added tags and fusions are not shown. Lines headed by an entry give the natural chain unless they say otherwise; changes in a name come on top. Residues count along the entry.
UniProt Q86WQ0: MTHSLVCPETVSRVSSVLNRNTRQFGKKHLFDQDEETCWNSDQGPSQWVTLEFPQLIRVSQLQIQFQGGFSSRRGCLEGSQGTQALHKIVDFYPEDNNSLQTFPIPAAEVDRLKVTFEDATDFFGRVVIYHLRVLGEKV
UniProt O75147: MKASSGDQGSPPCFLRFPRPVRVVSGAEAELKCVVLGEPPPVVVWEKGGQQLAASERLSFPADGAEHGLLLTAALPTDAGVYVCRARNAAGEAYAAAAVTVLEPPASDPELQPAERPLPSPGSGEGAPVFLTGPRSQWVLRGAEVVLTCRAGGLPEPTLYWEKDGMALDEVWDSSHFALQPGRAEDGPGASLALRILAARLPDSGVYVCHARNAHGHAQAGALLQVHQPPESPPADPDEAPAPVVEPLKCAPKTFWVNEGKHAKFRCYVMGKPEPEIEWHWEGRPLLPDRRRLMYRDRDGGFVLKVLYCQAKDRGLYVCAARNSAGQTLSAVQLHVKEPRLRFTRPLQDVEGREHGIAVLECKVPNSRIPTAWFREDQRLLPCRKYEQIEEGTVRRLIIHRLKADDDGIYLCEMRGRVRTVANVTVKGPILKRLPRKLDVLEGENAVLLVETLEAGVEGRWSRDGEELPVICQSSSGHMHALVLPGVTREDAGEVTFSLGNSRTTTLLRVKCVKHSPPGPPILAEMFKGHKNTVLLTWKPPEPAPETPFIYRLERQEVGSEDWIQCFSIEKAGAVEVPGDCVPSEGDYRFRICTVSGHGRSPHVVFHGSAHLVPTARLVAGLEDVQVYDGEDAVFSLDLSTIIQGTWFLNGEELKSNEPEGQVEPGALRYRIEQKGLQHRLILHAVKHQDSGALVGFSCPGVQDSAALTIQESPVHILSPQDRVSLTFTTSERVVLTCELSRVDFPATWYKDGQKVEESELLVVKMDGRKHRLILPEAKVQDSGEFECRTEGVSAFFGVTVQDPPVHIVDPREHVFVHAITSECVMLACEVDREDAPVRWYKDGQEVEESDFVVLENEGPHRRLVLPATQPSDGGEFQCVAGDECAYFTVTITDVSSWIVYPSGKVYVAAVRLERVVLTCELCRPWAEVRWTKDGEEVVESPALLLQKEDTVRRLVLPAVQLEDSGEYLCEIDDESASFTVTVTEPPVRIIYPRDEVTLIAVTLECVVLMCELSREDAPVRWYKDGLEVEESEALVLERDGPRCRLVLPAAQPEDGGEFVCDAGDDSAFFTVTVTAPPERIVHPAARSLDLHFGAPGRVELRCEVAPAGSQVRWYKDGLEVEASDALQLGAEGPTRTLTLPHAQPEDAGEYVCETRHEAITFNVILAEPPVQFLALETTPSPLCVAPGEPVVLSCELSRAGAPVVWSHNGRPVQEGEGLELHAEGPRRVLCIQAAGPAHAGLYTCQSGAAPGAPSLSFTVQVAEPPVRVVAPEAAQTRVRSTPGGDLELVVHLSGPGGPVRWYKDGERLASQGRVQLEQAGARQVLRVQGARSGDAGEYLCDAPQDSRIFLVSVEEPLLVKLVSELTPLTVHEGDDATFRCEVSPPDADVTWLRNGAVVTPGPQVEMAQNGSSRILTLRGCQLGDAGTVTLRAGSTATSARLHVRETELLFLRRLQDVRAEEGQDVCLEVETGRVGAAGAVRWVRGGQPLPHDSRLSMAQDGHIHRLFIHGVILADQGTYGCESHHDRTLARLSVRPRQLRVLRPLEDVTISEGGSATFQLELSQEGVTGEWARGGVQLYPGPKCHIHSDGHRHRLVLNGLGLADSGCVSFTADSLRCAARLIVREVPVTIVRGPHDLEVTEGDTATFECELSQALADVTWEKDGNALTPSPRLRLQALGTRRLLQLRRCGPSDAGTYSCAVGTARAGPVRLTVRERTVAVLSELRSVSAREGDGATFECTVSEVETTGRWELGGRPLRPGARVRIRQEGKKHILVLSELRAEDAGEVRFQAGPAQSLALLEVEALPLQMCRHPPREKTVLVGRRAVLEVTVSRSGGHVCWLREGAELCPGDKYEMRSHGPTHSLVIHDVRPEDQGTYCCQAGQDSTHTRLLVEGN
UniProt Q04721: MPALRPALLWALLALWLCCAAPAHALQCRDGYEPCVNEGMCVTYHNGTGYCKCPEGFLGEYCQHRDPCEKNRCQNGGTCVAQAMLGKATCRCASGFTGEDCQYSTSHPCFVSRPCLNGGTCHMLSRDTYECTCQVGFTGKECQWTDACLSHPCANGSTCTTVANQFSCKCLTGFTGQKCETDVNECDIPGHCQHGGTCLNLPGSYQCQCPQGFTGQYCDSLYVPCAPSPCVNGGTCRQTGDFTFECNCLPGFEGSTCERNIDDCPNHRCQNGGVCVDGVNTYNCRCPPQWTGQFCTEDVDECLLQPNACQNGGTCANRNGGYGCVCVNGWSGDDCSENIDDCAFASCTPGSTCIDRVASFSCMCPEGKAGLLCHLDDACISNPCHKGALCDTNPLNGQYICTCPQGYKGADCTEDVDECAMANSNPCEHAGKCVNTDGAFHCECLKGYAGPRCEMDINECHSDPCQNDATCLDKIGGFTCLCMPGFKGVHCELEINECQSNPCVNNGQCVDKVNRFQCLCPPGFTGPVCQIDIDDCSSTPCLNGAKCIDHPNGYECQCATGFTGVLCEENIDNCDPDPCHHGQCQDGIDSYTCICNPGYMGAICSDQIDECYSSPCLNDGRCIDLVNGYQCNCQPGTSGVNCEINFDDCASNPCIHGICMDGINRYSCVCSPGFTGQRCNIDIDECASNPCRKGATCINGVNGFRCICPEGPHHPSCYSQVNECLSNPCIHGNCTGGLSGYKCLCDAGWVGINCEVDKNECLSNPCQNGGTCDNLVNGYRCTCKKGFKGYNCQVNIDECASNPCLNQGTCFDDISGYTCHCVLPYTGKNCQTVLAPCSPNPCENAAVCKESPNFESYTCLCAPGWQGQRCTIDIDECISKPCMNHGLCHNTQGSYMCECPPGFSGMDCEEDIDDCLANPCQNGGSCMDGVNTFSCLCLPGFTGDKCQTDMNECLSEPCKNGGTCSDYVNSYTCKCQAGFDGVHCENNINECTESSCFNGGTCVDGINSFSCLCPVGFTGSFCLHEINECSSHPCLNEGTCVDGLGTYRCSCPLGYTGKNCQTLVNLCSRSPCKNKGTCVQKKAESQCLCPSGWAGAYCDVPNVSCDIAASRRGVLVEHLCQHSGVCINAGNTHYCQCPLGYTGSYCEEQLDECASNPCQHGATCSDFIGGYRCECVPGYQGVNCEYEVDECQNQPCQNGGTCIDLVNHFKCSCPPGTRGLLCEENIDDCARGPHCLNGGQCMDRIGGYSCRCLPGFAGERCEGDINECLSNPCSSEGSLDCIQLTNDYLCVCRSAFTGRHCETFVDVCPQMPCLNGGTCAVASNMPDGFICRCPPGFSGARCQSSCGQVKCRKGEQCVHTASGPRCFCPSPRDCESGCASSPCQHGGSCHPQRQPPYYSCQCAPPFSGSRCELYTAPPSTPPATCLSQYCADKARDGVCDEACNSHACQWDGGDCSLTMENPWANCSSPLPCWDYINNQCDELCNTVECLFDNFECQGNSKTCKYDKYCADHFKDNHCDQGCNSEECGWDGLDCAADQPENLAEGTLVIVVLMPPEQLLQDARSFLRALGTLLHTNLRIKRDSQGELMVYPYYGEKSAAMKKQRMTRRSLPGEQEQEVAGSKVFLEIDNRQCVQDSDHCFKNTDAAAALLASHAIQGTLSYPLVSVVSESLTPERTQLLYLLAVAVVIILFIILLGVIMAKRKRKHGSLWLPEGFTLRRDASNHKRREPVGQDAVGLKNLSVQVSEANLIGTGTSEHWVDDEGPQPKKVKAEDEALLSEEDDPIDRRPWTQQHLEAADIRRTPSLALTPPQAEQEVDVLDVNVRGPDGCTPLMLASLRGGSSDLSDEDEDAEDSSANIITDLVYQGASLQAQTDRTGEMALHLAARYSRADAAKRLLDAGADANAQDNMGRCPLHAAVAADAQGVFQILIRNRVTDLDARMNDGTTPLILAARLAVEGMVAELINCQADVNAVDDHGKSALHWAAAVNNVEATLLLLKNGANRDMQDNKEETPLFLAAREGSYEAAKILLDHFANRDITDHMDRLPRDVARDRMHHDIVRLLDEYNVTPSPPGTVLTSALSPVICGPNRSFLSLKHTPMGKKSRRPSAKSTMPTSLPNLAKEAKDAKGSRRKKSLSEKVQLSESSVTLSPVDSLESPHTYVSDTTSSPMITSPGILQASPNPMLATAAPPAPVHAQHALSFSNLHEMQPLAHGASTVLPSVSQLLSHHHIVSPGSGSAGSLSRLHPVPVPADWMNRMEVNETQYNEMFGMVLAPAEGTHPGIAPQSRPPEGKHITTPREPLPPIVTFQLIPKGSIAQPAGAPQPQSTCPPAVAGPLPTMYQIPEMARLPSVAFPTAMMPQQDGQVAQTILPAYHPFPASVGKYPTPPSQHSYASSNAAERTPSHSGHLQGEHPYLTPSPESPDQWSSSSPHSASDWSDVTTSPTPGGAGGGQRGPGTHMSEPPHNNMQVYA
UniProt P37198, 453-476: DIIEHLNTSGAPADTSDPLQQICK
UniProt Q9BVL2, 241-260: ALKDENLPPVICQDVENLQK
UniProt Q6PK18: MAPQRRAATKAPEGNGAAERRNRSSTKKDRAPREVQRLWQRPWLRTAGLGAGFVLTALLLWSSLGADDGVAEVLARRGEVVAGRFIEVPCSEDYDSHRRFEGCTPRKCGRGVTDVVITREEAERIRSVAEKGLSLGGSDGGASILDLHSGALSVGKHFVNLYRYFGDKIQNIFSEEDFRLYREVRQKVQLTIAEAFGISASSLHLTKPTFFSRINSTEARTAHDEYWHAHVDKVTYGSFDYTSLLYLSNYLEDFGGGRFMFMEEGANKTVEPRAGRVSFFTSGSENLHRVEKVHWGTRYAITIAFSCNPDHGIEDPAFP
UniProt Q96IY1: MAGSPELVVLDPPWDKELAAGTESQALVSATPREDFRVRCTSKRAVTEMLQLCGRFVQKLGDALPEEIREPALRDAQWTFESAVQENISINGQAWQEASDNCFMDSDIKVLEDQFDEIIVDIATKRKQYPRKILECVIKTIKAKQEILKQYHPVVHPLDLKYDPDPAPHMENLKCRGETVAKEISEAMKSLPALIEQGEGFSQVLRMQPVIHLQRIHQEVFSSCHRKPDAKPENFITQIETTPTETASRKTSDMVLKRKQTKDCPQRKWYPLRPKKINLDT
UniProt O15381, 384-403: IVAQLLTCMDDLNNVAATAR
UniProt O75694: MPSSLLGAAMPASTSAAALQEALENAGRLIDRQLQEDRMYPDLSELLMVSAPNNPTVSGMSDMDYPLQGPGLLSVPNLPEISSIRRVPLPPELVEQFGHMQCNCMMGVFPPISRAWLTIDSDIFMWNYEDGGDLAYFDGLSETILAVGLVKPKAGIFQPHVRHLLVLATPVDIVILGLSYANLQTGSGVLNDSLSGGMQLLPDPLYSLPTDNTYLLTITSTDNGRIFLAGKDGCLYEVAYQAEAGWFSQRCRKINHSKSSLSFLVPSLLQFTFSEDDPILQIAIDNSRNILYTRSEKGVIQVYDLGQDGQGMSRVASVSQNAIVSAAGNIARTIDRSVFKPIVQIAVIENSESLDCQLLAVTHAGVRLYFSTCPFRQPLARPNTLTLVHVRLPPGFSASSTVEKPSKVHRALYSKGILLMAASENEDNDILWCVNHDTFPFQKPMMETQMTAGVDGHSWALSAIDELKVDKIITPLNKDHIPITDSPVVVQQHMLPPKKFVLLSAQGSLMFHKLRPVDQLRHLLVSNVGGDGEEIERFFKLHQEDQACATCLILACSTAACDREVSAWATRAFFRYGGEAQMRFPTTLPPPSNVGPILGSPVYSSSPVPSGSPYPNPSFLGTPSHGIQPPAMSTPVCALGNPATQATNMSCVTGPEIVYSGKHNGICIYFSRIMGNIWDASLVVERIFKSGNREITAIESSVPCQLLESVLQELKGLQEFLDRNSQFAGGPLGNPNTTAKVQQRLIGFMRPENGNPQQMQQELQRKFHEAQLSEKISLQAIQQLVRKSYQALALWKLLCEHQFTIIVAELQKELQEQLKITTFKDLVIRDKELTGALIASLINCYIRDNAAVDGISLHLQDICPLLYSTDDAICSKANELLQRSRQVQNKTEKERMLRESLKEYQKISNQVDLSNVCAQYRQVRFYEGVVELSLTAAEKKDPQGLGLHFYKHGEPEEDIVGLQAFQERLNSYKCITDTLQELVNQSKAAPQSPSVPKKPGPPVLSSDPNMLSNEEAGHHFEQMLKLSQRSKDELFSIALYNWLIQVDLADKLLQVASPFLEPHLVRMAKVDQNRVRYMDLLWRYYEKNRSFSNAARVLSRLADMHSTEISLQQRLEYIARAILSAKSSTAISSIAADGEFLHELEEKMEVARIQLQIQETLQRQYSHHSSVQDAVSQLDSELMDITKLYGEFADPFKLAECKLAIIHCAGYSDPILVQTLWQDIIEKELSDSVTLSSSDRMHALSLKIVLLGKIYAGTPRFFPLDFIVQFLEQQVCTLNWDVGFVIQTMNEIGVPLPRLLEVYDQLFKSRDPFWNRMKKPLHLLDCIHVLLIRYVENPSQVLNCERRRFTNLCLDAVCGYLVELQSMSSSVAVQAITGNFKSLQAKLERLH
UniProt Q9BZ95, 166-187: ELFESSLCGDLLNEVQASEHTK

[2] = compound: ClCC(=O)N[C@H]1CCCc2ccccc12; assay: as above; conditions: treatment time: 4 h, cell line lysate: HEK293T
Description: as §1

Target | log2 mean competition ratio ([1]; 50 µM) | log2 mean competition ratio ([1]; 200 µM) | log2 mean competition ratio ([2]; 50 µM) | log2 mean competition ratio ([2]; 200 µM)
OSBPL10 C511 (UniProt Q9BXB5) | -0.27 | -0.227 | -0.109 | -0.296
NT5C3B C210 (UniProt Q969T7) | -0.379 | 0.236 | -0.0331 | 0.0225
NXT2;NXT1 C15;(C14) | 0.0849 | 0.0185 | 0.121 | 0.000339
NPC1 C979 (UniProt O15118) | 0.382 | 0.0732 | 0.0408 | -0.187
NR2C2AP C7 (UniProt Q86WQ0) | 0.185 | 1.1 | 5.48 | –
NRDE2 C203 (UniProt Q9H7Z3) | 0.0638 | -0.0843 | 0.338 | 0.00999
NSD1 C2508 (UniProt Q96L73) | -0.131 | 0.00924 | -0.0155 | -0.0496
NUP35 C243 (UniProt Q8NFH5) | 0.533 | 0.607 | 0.291 | 0.213
NT5C3A C73 (UniProt Q9H0P0) | -0.156 | -0.278 | -0.427 | -0.144
OBSL1 C362 (UniProt O75147) | -0.235 | 0.25 | -0.295 | 0.316
OGA C896 (UniProt O60502) | 0.451 | 0.109 | 0.0911 | -0.014
NSUN2 C599 (UniProt Q08J23) | -0.078 | -0.0514 | 0.107 | 0.2
NOTCH2 C1252 (UniProt Q04721) | -0.0277 | 0.326 | -0.0395 | 0.299
NOTCH2 C264 (UniProt Q04721) | 0.0359 | 0.151 | 0.304 | 0.469
ORC1 C469 (UniProt Q13415) | 0.166 | 0.147 | 0.208 | 0.112
NUP88 C561 (UniProt Q99567) | -0.117 | 0.333 | -0.558 | -0.271
NUP62 C475 (UniProt P37198) | 0.0914 | -0.0575 | 0.997 | -0.403
OBI1 C458 (UniProt Q5W0B1) | 0.34 | 0.142 | 0.0202 | 0.17
NUMA1 C658 (UniProt Q14980) | -0.219 | -0.308 | -0.136 | -0.356
NUP58 C252 (UniProt Q9BVL2) | -0.218 | 0.377 | 0.0172 | -0.0134
OGFOD3 C90 (UniProt Q6PK18) | -0.0107 | 0.228 | -0.573 | 0.153
NR2F1 C122 | 0.369 | -0.0178 | 0.122 | 0.112
NOTCH2 C1250 (UniProt Q04721) | -0.106 | 0.868 | 0.221 | 0.611
OBSL1 C412 (UniProt O75147) | -0.219 | 0.201 | -0.502 | 0.101

Not a retest: entries from further up.
Target | log2 mean competition ratio ([1]; 50 µM) | log2 mean competition ratio ([1]; 200 µM) | log2 mean competition ratio ([2]; 50 µM) | log2 mean competition ratio ([2]; 200 µM)
NUP35 C243 (UniProt Q8NFH5) | 0.533 | 0.607 | 0.291 | 0.213
NT5C3A C73 (UniProt Q9H0P0) | -0.156 | -0.278 | -0.427 | -0.144
OBSL1 C362 (UniProt O75147) | -0.235 | 0.25 | -0.295 | 0.316

The list goes on:

Target | log2 mean competition ratio ([1]; 50 µM) | log2 mean competition ratio ([1]; 200 µM) | log2 mean competition ratio ([2]; 50 µM) | log2 mean competition ratio ([2]; 200 µM)
NR2C2 C204 (UniProt P49116) | -0.375 | 0.0328 | -0.308 | -0.144
NSL1 C175 (UniProt Q96IY1) | 0.4 | 0.164 | 0.441 | 0.201
NUMA1 C1136 (UniProt Q14980) | -0.0467 | 0.0856 | -0.15 | -0.0788
NSUN2 C502 (UniProt Q08J23) | -0.153 | 0.164 | -0.22 | 0.215
NVL C391 (UniProt O15381) | 0.0856 | 0.204 | -0.0851 | 0.192
NUP160 C480 (UniProt Q12769) | 0.381 | 0.281 | 0.348 | 0.315
NUP155 C917 (UniProt O75694) | 0.0384 | -0.135 | 0.157 | -0.107
NUP153 C404 (UniProt P49790) | 0.0627 | -0.00734 | 0.132 | 0.123
NUBP2 C72 (UniProt Q9Y5Y2) | 0.275 | -0.0768 | 0.211 | 0.157
NOTCH3 C1222 (UniProt Q9UM47) | -0.13 | 0.0741 | -0.152 | 0.295
NSD3 C173 (UniProt Q9BZ95) | 0.0329 | -0.306 | -0.211 | -0.226
OGA C166 (UniProt O60502) | 0.584 | 0.412 | 0.085 | 0.344
NUS1 C164 (UniProt Q96E22) | -0.378 | 0.37 | -0.213 | 0.197
NR3C1 C463 (UniProt P04150) | -0.0965 | 0.584 | 0.234 | 0.668
NOTCH3 C1747 (UniProt Q9UM47) | -0.183 | 0.216 | -0.402 | 0.169
OSBPL6 C803 (UniProt Q9BZF3) | -0.0729 | 0.017 | 0.0183 | -0.166
ORC1 C529 (UniProt Q13415) | 0.141 | 0.449 | 0.257 | 0.337
NUP214 C728 | 0.19 | -0.0119 | 0.192 | 0.799
NPAT C551 (UniProt Q14207) | -0.107 | -0.1 | -0.0388 | -0.158
NR2C1 C185 (UniProt P13056) | -0.141 | 0.29 | 0.146 | 0.0587
NR3C1 C287 (UniProt P04150) | -0.283 | 0.0448 | -0.228 | 0.0328
NUP85 C51 (UniProt Q9BW27) | 0.471 | 0.151 | 0.541 | 0.24
NUP85 C112 (UniProt Q9BW27) | 0.0498 | -0.0792 | -0.839 | -0.338
OSBPL6 C379 (UniProt Q9BZF3) | 0.0952 | -0.196 | -0.809 | -0.313

From the supplement of paper PMC11732987, “Enantioselective OTUD7B fragment discovery through chemoproteomics screening and high-throughput optimisation” (Communications Chemistry, 2025)
